Data published in paper PMC6544628, “Plasmodium pseudo-Tyrosine Kinase-like binds PP1 and SERA5 and is exported to host erythrocytes” (Scientific Reports, 2019).
No constants are given. Whether binding was seen depends on the method and setting. Where a sequence is shown, tags or fusion partners need not be part of it.

B1: His6-pTKL_RVxF1 (domain or fragment, UniProt Q8IIT5 391-551)
chain: TNKNIKKGKNIKKEKKKKKEKNIKKEKKKKKKETKKFNNMDKKYIDLAIHKNVKNIQNDTFYNKHENIYNCKNQTNFIYQNDSEIKKIMNKKKVSFEYDNNEEKKKKNIIKFIKNNKSLQNSNGEYYLINHLSKGICSDSIFYKSSQSKSSSQLSSPLSSP
B2: pTKL_KD_WT (domain or fragment, UniProt Q8IIT5 1088-1483)
chain: FHYQHNVLCGAYDNNDNNINDNDIYCNNIYDNNINDNHIYCNNINDNHIYCNNINDNHIYCNNIYDHHKNTSLNSKEQNTDHNIEQINECNKYASETKYNIKKSNLKNNIISHKNFQKCNQIQMNQPYTFPPYQKELSSYLKNEKIKRKRKVLFSYLKTHIHFNSQQINDQHNRLSVQKIMKIITDVTLACTYLEKEKMSPINLKPTNILLDESLNAKISDFGISKIENCLDMNIDYSYKISSNSVIKINKKEYEQKKAKKIKIVNKNNNDLLYLYDHNNNVYKYNTQYIDVTYNNSYPSIFYWTPPEILRGKKNKKFYSDIYAFGIILWEMLSNDIPYNYPFASHIMAVVGYANEELSFNNIPVSIQSLIKACVNRNKYKRPTFEHILKTISTLY

Molecular target: PfeIf2γ-GST (P. falciparum)
Assay: pull-down; both purified

Binder | binding
B1 | no binding (tested: 2 μg)
B2 | no binding (tested: 2 μg)
